These are yes or no findings as the source states them, for the method shown. For part of these data: Binding calls can cover weak binding; strength is not graded here.
How the values were obtained:
Test in all cases: two-hybrid; Matchmaker Two-Hybrid System (Clontech); pGBKT7 (BD) and pGADT7 (AD) fusions cotransformed in yeast; SD/-Trp/-Leu/-His/-Ade/X-α-gal (40 μg/ml) with 5 mM 3-AT; grade by the number of clones
[1] = biological target: APETALA1 (AP1) of Arabidopsis, truncated version without the trans-activating C-terminus (Arabidopsis)
[2] = biological target: PtAGL24 (Poncirus trifoliata (trifoliate orange))
[3] = biological target: FLOWERING LOCUS (FLC) of Arabidopsis (Arabidopsis)

B1: AGAMOUS-LIKE 24 (AGL24) of Arabidopsis (protein, UniProt O82794 1-220)
chain: MAREKIRIKKIDNITARQVTFSKRRRGIFKKADELSVLCDADVALIIFSATGKLFEFSSSRMRDILGRYSLHASNINKLMDPPSTHLRLENCNLSRLSKEVEDKTKQLRKLRGEDLDGLNLEELQRLEKLLESGLSRVSEKKGECVMSQIFSLEKRGSELVDENKRLRDKLETLERAKLTTLKEALETESVTTNVSSYDSGTPLEDDSDTSLKLGLPSWE
[1]
  binding: binds
[2]
  binding: binds
[3]
  binding: no binding
